Source: paper PMC8529287
No constants are given. Whether binding was seen depends on the method and setting. Some binding calls cover weakened binding; strength is not graded here. Where a sequence is shown, tags or fusion partners need not be part of it.

Amino acid sequences for entries named in this document (tags omitted). A change or cut given only in a name is not applied to a line headed by its entry.
UniProt P02452: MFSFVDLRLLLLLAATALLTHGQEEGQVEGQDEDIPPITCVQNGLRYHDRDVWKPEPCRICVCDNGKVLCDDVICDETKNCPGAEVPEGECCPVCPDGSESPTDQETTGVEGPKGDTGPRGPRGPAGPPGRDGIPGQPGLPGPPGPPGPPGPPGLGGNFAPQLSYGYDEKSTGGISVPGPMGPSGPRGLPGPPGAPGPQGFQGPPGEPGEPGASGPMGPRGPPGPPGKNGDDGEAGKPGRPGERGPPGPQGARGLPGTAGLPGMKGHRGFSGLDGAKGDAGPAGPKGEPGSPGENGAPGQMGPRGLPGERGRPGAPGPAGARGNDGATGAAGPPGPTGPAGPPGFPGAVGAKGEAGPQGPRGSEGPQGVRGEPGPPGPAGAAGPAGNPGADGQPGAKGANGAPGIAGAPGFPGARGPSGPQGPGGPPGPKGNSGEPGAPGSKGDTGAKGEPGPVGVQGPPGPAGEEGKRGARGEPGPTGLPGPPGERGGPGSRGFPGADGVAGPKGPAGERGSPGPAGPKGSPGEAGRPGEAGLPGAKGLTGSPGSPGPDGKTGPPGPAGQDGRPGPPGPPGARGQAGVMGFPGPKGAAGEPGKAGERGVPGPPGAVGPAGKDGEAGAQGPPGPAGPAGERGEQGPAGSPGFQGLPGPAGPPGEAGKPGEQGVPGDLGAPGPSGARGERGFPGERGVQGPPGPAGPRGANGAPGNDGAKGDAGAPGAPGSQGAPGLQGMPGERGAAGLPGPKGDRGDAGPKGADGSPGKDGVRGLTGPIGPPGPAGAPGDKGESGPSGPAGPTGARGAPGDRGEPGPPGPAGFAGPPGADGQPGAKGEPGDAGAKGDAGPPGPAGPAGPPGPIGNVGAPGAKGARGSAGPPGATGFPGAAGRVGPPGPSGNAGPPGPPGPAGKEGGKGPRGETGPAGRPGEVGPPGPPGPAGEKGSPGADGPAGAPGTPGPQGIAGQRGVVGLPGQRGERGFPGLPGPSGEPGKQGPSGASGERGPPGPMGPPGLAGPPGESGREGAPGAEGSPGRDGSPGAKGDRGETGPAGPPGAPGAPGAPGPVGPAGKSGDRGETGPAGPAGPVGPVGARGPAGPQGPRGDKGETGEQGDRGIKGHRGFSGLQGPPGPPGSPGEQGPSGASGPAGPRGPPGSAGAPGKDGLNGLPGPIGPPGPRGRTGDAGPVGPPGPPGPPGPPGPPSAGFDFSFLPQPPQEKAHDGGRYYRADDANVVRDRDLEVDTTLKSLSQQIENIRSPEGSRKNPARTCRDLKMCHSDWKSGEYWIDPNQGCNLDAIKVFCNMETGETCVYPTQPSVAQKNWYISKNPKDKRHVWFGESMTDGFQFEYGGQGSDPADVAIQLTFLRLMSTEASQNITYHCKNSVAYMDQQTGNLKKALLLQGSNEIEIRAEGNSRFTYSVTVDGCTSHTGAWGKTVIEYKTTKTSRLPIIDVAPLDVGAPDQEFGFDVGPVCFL
UniProt P08123: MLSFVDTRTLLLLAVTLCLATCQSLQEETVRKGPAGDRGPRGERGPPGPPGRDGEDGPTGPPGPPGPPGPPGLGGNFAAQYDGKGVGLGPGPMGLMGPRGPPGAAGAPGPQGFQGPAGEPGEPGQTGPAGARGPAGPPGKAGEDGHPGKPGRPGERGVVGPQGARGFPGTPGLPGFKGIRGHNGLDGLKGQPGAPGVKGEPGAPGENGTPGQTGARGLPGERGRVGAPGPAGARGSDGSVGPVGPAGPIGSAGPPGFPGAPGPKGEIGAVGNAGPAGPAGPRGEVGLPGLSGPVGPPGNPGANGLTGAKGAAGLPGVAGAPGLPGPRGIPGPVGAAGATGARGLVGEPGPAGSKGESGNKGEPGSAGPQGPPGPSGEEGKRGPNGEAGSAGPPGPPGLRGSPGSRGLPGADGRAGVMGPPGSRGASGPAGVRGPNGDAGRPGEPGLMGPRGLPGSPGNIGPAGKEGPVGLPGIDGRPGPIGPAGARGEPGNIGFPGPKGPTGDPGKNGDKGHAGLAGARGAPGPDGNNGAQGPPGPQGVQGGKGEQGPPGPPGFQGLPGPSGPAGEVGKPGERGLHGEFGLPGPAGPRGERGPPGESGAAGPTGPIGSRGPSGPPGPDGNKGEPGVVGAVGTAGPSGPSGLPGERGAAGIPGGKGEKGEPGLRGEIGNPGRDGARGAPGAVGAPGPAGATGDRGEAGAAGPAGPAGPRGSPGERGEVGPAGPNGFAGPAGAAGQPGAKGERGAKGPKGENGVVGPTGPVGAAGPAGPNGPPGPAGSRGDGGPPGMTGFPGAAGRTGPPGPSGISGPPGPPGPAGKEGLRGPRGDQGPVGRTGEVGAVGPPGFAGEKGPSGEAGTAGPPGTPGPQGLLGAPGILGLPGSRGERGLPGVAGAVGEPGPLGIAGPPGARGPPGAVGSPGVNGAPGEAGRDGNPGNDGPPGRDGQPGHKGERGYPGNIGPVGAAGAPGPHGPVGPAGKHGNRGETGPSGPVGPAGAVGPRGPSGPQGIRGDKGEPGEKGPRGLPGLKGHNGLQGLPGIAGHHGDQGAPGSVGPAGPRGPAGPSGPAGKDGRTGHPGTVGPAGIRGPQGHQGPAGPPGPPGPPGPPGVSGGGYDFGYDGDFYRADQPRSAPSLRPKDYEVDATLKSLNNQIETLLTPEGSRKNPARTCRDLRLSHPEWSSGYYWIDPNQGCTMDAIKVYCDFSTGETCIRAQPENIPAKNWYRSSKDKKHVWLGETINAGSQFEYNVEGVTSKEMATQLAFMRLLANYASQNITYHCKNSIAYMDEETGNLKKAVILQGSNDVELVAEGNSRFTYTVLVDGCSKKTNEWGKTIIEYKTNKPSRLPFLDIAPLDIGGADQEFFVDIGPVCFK

B1: LAIR-1-Fc fusion protein (Fc fusion, UniProt Q6GTX8 22-165)
chain: QEEDLPRPSISAEPGTVIPLGSHVTFVCRGPVGVQTFRLERDSRSTYNDTEDVSQASPSESEARFRIDSVREGNAGLYRCIYYKPPKWSEQSDYLELLVKESSGGPDSPDTEPGSSAGPTQRPSDNSHNEHAPASQGLKAEHLY
modifications: biotinylated
B2: LAIR-2-Fc (Fc fusion, UniProt Q6ISS4 22-152)
chain: QEGALPRPSISAEPGTVISPGSHVTFMCRGPVGVQTFRLEREDRAKYKDSYNVFRLGPSESEARFHIDSVSEGNAGLYRCLYYKPPGWSEHSDFLELLVKESSGGPDSPDTEPGSSAGTVPGTEASGFDAP
modifications: biotinylated where used for staining in the immune binding assays
B3: LAIR-2-Fc dead (Fc fusion, UniProt Q6ISS4 22-152)
chain: B2 chain
modifications: biotinylated where used for staining in the immune binding assays

Tests used:
[1] = molecular target: T1, mock treated collagen I (human) (UniProt P02452+P08123); experiment: fluorescence based immune binding assay; fluorescence based immune binding assay of biotinylated LAIR-1-Fc (5 μg/ml) on coated collagen I, after pre-treatment of the coated plate with LAIR-2-Fc or LAIR-2-Fc dead (2 hours at 37°C in culture medium); both purified
[2] = molecular target: T1, mock treated collagen I (human); experiment: fluorescence based immune binding assay; collagen I (mock, MMP1 or MMP9 treated) coated on 96-well plates and methanol-fixed; stained with biotinylated Fc fusion protein (5 μg/ml, 1 hour at RT), then fluorescent Streptavidin; imaged on Odyssey Sa (LI-COR); both purified
[3] = molecular target: T1, mock treated collagen I (human); experiment: ELISA; ELISA based immune binding assay: collagen I (mock, MMP1 or MMP9 treated) coated on 96-well plates in MMP buffer overnight at 4°C and methanol-fixed; stained with biotinylated Fc fusion protein (5 μg/ml, 1 hour at RT), then Streptavidin-HRP and TMB; absorbance 450 nm minus 570 nm; both purified
[4] = molecular target: T1, mock treated collagen I (human); experiment: ELISA; ELISA based immune binding assay of biotinylated LAIR-1-Fc (5 μg/ml) on 5 μg/ml coated collagen I, after pre-treatment of the coated plate with LAIR-2-Fc or LAIR-2-Fc dead (indicated concentrations, 2 hours at 37°C in culture medium); both purified

| Binder | binding [1] | binding [2] | binding [3] | binding [4] |
| --- | --- | --- | --- | --- |
| B1 | binds | binds | binds | binds |
| B2 | – | binds | binds | – |
| B3 | – | binds | binds | – |
